{
  "sequences": {"note": "Sequences of proteins named here, by UniProt entry; tags and fusion partners are left off.", "UniProt P35462, whole entry, looked up": "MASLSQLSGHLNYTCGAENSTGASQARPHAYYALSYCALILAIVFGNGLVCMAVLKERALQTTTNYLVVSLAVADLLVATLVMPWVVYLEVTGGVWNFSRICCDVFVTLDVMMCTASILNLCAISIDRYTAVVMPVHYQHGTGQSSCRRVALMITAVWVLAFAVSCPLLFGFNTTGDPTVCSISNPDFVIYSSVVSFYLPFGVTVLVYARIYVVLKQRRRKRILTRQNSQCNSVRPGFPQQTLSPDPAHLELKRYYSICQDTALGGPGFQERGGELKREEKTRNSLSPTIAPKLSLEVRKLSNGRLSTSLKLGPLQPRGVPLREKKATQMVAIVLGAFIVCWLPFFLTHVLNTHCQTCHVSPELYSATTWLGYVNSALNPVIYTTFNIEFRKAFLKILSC"},
  "source": "PubChem BioAssay AID652054",
  "about": "(National Center for Advancing Translational Sciences (NCATS), 2013)",
  "note": "About 9,100 (2.5%) of roughly 360,000 compounds were called active. Inconclusive results, whose numbers are uncertain, are shown with a selection of clear calls. Rule as the data show it: active = max response below about -50%; inconclusive = no clear call, values can overlap the other calls; inactive = above that. % is scaled to controls: 0 for no effect and ±100 for the full control effect.",
  "data": [
    {"molecular_target": "D(3) dopamine receptor (Homo sapiens) (UniProt P35462)", "assay": "qHTS of D3 Dopamine Receptor Antagonist: qHTS", "conditions": "D3R cells, DiscoveRx beta-arrestin luminescence, antagonist mode; active compounds read low", "summary_of_the_method": "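Cells expressing the human receptor were seeded at 1500 cells/well, incubated overnight at 37 degrees C in 5% CO2, then exposed to library compounds with dopamine controls for 90 minutes at 37 degrees C before luminescent detection.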", "values": [
      {"smiles": "Cn1c(CN2CCN(c3cccc(Cl)c3)CC2)nc2ccccc21", "max response, negative = inhibition": "inconclusive: -31.7%"},
      {"smiles": "O=C(Nc1nc2ccc([N+](=O)[O-])cc2s1)C1CCCO1", "note": "(centres undefined)", "max response, negative = inhibition": "inconclusive: -36.2%"},
      {"smiles": "NS(=O)(=O)c1ccc(NC(=O)CSc2ccccc2)cc1", "max response, negative = inhibition": "inactive: 26.3%"},
      {"smiles": "COc1cc(C(=S)N2CCOCC2)cc(OC)c1OS(=O)(=O)c1ccc(C)cc1", "max response, negative = inhibition": "inactive: 0.485%"},
      {"smiles": "c1ccc(CN2CCN(Cc3c[nH]c4ccccc34)CC2)cc1", "max response, negative = inhibition": "active: -59.8%"},
      {"smiles": "Cc1[nH]n(C(N)=S)c(=O)c1N=Nc1ccccc1C(F)(F)F", "max response, negative = inhibition": "inactive: 18.3%"},
      {"smiles": "CC(=O)C1=CCC(c2ccc(C)cc2)N(S(=O)(=O)c2ccc(C)cc2)C1", "note": "(centres undefined)", "max response, negative = inhibition": "inactive: 2.98%"},
      {"smiles": "CCCOc1ccc(C2/C(=C(/O)c3ccccc3)C(=O)C(=O)N2CCCN(C)C)cc1OC", "note": "(centres undefined)", "max response, negative = inhibition": "inconclusive: -30.6%"},
      {"smiles": "CCCNC(=O)C1(C)CCN(Cc2cccc(OC(=O)c3ccccc3)c2)C1", "note": "(centres undefined)", "max response, negative = inhibition": "active: -78.9%"},
      {"smiles": "Cc1ccc(C(=O)NCCN(C)C)cc1C", "max response, negative = inhibition": "inconclusive: -44.7%"},
      {"smiles": "CC(C)C[C@H]1CNC(=S)N1CC1CCN(CC2CCC(C(C)(C)C)CC2)CC1", "note": "(some centres undefined)", "max response, negative = inhibition": "active: -62.7%"},
      {"smiles": "Cc1ccc(S(=O)(=O)N2CCN(C(=O)CSc3ncc(C(F)(F)F)cc3Cl)CC2)cc1", "max response, negative = inhibition": "inactive: -2.33%"},
      {"smiles": "CN(C)c1ccc(N=Nc2nccs2)cc1", "max response, negative = inhibition": "active: -82.3%"},
      {"smiles": "O=C(NN=Cc1ccc(F)cc1)c1cccc(S(=O)(=O)N2CCCC2)c1", "max response, negative = inhibition": "inconclusive: -30.7%"},
      {"smiles": "O=C(N/N=C/c1ccc(O)cc1O)NC12CC3CC(CC(C3)C1)C2", "max response, negative = inhibition": "inconclusive: -45.9%"},
      {"smiles": "O=C(Nc1cccnc1)c1cc(-c2cccnc2)nc2ccc(Br)cc12", "max response, negative = inhibition": "inactive: 25%"},
      {"smiles": "Cc1ccc(SCCN2CCN(Cc3ccccc3)CC2)cc1", "max response, negative = inhibition": "inconclusive: -39.5%"},
      {"smiles": "COc1ccc(S(=O)(=O)Nc2ccc(C)cc2)cc1N(C)S(=O)(=O)c1ccc(Cl)cc1", "max response, negative = inhibition": "inconclusive: -30.7%"},
      {"smiles": "Cn1c(Cn2nnc3ccccc32)nnc1SCC(=O)N1c2ccccc2Sc2ccccc21", "max response, negative = inhibition": "active: -54.9%"},
      {"smiles": "COc1cccc(CC2(CO)CCN(Cc3ccc4cccc(F)c4n3)CC2)c1", "max response, negative = inhibition": "active: -82.2%"},
      {"smiles": "CN(C)c1ccc(-c2csc(C(O)c3ccc(F)c(F)c3)n2)cc1", "note": "(centres undefined)", "max response, negative = inhibition": "inactive: 0%"},
      {"smiles": "O=C(C[C@H]1C[C@H](C(=O)N2CCCCC2)[C@@]2(CCc3ccccc3)c3[nH]c4ccc(Cl)cc4c3CCN2C1=O)NCCCn1ccnc1", "max response, negative = inhibition": "inconclusive: -32.6%"},
      {"smiles": "COc1ccc(C(CNC(=O)C(C)c2ccc3cc(OC)ccc3c2)N(C)C)cc1", "note": "(centres undefined)", "max response, negative = inhibition": "active: -75.5%"},
      {"smiles": "CCOC(=O)[C@]12CCC=C1N(Cc1ccco1)C(=O)[C@H](CC(=O)N1CCCC1)C2", "max response, negative = inhibition": "inconclusive: -42.9%"},
      {"smiles": "CCc1ccccc1NC(=O)c1ccc(CN2CCC(Cc3ccccc3)CC2)cc1", "max response, negative = inhibition": "inconclusive: -37.4%"},
      {"smiles": "COc1ccccc1-c1ccc2c(c1)C(C)(Cc1cc(Cl)ccc1C(F)(F)F)C(=O)N2", "note": "(centres undefined)", "max response, negative = inhibition": "inactive: 0%"},
      {"smiles": "COc1ccc(C(=O)N2CCN(C(=O)Cc3ccccc3)CC2)cc1", "max response, negative = inhibition": "inactive: -23.4%"},
      {"smiles": "CCOc1ccccc1NC(=S)N(Cc1cc2ccc(C)cc2[nH]c1=O)CC1CCCN1CC", "note": "(centres undefined)", "max response, negative = inhibition": "inconclusive: -39.6%"},
      {"smiles": "COc1ccc(OCc2cc(C(=O)N(C)CC3CCCCO3)no2)c(Cl)c1", "note": "(centres undefined)", "max response, negative = inhibition": "inactive: 12.2%"},
      {"smiles": "S=c1[nH]nc(C2CCCCC2)n1/N=C/C(Cl)=C\\c1ccccc1", "max response, negative = inhibition": "inconclusive: -37.8%"},
      {"smiles": "CC(C)(C)NS(=O)(=O)c1ccc(NC(=S)NC(=O)C2CCC2)cc1", "max response, negative = inhibition": "inconclusive: -38.2%"},
      {"smiles": "Cc1cccc(C)c1-n1nnnc1C(c1cc2ccccc2o1)N1CCN(C/C=C/c2ccccc2)CC1", "note": "(centres undefined)", "max response, negative = inhibition": "active: -74.5%"},
      {"smiles": "CC1=NN(C(=O)CSCc2ccccc2)C(O)(c2ccc(Cl)cc2)C1", "note": "(centres undefined)", "max response, negative = inhibition": "inactive: 14.4%"},
      {"smiles": "CCc1c(C)sc(NC(=O)c2ccccc2[N+](=O)[O-])c1C(N)=O", "max response, negative = inhibition": "inconclusive: -33%"},
      {"smiles": "CCOc1ccc2[nH]c(=O)c(CN(CCO)Cc3nnnn3CCc3ccccc3)cc2c1", "max response, negative = inhibition": "inactive: -4.49%"},
      {"smiles": "CCC(=O)N1CCN(c2cc3c(cc2F)c(=O)c(C(=O)O)cn3CC)CC1", "max response, negative = inhibition": "inconclusive: -34.3%"},
      {"smiles": "COc1cc(OC)cc(N(C(=O)C2COc3ccccc3O2)C(C(=O)NC2CCCCC2)c2ccc(O)cc2)c1", "note": "(centres undefined)", "max response, negative = inhibition": "inconclusive: -30.9%"},
      {"smiles": "COc1ccc(C(=O)NC2CCCN(Cc3ccc(Cl)cc3)C2)c(OC)c1", "note": "(centres undefined)", "max response, negative = inhibition": "inconclusive: -40.2%"},
      {"smiles": "C=CCNC(=O)c1sc(SC)cc1-c1ccc(Cl)cc1", "max response, negative = inhibition": "inconclusive: -37.9%"},
      {"smiles": "CCc1ccc(N2CC(C(=O)N/N=C/c3cc([N+](=O)[O-])ccc3O)CC2=O)cc1", "note": "(centres undefined)", "max response, negative = inhibition": "active: -62.9%"},
      {"smiles": "CC(C)C[C@H]1CN=C(Nc2ccccc2)N1CCCC1CCCC1", "max response, negative = inhibition": "active: -51.3%"},
      {"smiles": "COc1ccc(/C=N/c2nc3ccccc3n2CCN2CCCCC2)cc1OC", "max response, negative = inhibition": "inconclusive: -36%"},
      {"smiles": "CCCc1nc2oc(C(=O)c3ccccc3)c(N)c2c2c1COC(C)(C)C2", "max response, negative = inhibition": "inconclusive: -45%"},
      {"smiles": "CON(c1nc(Cl)nc(N(C)C)n1)S(=O)(=O)c1ccccc1Cl", "max response, negative = inhibition": "inconclusive: -46.8%"},
      {"smiles": "O=C(CSc1nc(O)c(C(c2ccccc2)c2ccccc2)c(=O)[nH]1)N1CCOCC1", "max response, negative = inhibition": "active: -62.3%"},
      {"smiles": "COc1ccc(NC(=S)Nc2ccc3nsnc3c2)cc1", "max response, negative = inhibition": "active: -61.5%"},
      {"smiles": "c1ccc(COn2nnc3ccccc32)c(COn2nnc3ccccc32)c1", "max response, negative = inhibition": "inconclusive: -32.7%"},
      {"smiles": "COc1ccc(-c2nc(SCc3ccccc3)n(S(C)(=O)=O)n2)cc1", "max response, negative = inhibition": "inconclusive: -36.5%"},
      {"smiles": "C[C@@H]1CN([C@H](C)CO)C(=O)CCCn2cc(nn2)CO[C@H]1CN(C)C(=O)Nc1ccc(C(C)(C)C)cc1", "max response, negative = inhibition": "active: -100%"},
      {"smiles": "COc1ccc(/C=C2/C(=O)N(c3ccccc3)N=C2C)cc1OC", "max response, negative = inhibition": "inconclusive: -50%"},
      {"smiles": "CC1CCCC(NC(=O)CN(C)CC(=O)Nc2cccc(F)c2)C1C", "note": "(centres undefined)", "max response, negative = inhibition": "inactive: -15.2%"},
      {"smiles": "COc1ccccc1N1CCN(C(=O)C2CC=CCC2C(=O)O)CC1", "note": "(centres undefined)", "max response, negative = inhibition": "inconclusive: -33.3%"},
      {"smiles": "Cc1cccc(N2C(=O)/C(=C/c3ccccn3)SC2=S)c1", "max response, negative = inhibition": "inconclusive: -32.8%"},
      {"smiles": "CC(C)CC(=O)NC1(C(F)(F)F)C(=O)N(CC(C)C)C2=C1C(=O)CC(C)(C)C2", "note": "(centres undefined)", "max response, negative = inhibition": "inconclusive: -42.9%"}
    ]}
  ]
}
